Consider 2 substances from paper PMC9663509.

By UniProt entry, the sequences of proteins in these tests, tags left out.
UniProt Q07912: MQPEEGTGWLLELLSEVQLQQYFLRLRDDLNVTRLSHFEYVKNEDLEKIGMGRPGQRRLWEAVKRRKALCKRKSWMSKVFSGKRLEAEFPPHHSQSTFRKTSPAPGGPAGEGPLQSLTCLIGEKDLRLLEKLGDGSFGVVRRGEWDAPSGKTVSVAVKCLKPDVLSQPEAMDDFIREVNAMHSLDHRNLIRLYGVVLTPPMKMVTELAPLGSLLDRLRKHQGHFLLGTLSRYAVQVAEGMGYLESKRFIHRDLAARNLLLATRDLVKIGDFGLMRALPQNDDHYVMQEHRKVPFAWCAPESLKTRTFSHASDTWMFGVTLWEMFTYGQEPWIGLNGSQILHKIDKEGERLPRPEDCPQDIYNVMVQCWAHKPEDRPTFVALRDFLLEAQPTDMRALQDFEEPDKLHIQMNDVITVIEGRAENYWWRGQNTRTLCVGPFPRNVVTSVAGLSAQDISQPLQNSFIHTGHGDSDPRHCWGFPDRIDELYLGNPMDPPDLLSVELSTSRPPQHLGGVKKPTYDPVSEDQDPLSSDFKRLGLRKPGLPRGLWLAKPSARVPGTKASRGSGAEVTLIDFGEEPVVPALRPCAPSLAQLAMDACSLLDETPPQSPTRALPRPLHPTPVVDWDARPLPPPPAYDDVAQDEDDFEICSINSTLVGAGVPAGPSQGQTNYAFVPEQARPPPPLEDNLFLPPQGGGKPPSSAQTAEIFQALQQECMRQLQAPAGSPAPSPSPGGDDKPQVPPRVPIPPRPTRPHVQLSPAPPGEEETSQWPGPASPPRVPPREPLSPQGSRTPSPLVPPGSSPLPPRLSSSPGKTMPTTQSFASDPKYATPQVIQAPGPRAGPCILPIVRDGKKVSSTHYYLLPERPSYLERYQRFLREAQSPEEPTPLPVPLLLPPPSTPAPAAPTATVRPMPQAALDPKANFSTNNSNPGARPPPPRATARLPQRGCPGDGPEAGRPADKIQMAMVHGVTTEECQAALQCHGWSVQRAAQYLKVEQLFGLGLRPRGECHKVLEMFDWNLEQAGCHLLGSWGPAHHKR
UniProt O54967: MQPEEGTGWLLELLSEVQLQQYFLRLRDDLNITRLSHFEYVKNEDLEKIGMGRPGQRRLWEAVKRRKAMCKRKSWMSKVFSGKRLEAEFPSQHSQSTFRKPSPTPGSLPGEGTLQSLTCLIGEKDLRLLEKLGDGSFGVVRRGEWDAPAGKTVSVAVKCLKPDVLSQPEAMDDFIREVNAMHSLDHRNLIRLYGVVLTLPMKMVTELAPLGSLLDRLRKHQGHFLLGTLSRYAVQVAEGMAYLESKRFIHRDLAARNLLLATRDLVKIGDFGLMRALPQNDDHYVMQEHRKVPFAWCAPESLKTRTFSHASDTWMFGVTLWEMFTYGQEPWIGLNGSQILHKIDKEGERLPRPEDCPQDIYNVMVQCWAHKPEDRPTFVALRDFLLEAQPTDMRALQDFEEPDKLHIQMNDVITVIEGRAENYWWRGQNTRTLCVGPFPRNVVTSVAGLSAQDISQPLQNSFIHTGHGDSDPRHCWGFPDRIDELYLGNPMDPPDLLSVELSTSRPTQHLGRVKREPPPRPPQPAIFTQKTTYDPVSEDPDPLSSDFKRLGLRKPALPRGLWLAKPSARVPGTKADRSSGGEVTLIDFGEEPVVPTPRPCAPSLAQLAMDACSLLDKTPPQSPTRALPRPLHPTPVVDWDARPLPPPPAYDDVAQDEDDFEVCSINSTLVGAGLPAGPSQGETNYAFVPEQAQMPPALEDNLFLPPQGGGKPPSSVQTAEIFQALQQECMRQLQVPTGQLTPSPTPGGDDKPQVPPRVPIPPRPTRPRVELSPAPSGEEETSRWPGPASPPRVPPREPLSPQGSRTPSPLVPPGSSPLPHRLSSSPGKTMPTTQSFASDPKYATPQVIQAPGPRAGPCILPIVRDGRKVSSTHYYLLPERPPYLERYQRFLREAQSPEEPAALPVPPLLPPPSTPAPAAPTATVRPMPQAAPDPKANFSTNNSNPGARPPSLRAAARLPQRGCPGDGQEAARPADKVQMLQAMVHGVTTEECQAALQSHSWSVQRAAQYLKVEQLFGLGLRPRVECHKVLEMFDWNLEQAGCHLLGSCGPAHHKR
UniProt P41240: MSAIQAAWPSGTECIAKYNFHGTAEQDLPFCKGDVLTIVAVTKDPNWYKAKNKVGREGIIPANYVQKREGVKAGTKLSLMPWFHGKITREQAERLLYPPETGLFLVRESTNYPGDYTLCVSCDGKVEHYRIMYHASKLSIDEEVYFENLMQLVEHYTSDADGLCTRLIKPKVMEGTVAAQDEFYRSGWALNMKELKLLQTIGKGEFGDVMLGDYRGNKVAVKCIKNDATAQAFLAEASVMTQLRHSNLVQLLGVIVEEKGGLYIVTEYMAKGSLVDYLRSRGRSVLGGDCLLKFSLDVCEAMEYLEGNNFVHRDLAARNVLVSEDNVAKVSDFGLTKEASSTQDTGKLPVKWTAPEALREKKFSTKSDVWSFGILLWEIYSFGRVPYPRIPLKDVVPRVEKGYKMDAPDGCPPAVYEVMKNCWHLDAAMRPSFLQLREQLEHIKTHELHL
UniProt Q61188: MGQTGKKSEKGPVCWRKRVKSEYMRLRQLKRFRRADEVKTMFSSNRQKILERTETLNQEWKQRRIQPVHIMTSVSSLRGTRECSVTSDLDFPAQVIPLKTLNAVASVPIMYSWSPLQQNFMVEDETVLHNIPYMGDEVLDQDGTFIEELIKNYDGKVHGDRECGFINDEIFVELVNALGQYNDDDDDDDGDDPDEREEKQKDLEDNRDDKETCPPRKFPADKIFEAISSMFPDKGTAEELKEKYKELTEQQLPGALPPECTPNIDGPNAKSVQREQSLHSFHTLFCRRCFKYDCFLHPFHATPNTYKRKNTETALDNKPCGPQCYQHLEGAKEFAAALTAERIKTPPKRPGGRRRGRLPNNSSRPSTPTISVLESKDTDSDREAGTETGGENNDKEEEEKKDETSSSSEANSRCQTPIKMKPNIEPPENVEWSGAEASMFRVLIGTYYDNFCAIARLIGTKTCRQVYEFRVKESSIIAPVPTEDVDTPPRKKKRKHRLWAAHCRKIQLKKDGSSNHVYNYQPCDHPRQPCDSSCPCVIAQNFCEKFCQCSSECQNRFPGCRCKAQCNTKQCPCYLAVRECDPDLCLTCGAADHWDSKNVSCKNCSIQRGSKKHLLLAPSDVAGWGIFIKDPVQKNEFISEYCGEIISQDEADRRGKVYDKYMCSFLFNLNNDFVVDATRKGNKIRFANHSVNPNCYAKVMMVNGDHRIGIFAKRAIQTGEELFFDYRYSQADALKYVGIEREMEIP

The target of assay [1] is Activated CDC42 kinase 1 (ACK1), full-length, HA-tagged (UniProt Q07912). Description: co-IP; HEK293T co-transfected with FLAG-CSK and HA-ACK1 or HA-cACK1; MG132 25 uM, 3 hr; lysates immunoprecipitated with HA beads, immunoblotted with FLAG antibodies.
In assay [2] the target is ACK1, endogenous in TRAMP-C2 cells (mouse (endogenous in TRAMP-C2)) (UniProt O54967). Description: co-IP; endogenous proteins; C4-2B and TRAMP-C2 cells treated with vehicle (DMSO) or (R)-9b; lysates immunoprecipitated with ACK1 or EZH2 antibody, immunoblotted.

No constants are given. Whether binding was seen depends on the method and setting. In cells and extracts the contact can be indirect. Some results given as binding are weak or reduced against the parent protein; the word gives no strength.

For the substance “C-terminal Src kinase (CSK), FLAG-tagged (from UniProt P41240 1-450) (enzyme)”, the binding entry in assay [1] is on record as “binds”.

As for “EZH2, endogenous in TRAMP-C2 cells (from UniProt Q61188 1-746) (enzyme)”, the binding result in assay [2] was “binds”.
